These are yes or no findings as the source states them, for the method shown. Some entries that bind do so weakly or less than the wild type.
Molecular target: T1, dystroglycan (UniProt Q62165)
T1 sequence: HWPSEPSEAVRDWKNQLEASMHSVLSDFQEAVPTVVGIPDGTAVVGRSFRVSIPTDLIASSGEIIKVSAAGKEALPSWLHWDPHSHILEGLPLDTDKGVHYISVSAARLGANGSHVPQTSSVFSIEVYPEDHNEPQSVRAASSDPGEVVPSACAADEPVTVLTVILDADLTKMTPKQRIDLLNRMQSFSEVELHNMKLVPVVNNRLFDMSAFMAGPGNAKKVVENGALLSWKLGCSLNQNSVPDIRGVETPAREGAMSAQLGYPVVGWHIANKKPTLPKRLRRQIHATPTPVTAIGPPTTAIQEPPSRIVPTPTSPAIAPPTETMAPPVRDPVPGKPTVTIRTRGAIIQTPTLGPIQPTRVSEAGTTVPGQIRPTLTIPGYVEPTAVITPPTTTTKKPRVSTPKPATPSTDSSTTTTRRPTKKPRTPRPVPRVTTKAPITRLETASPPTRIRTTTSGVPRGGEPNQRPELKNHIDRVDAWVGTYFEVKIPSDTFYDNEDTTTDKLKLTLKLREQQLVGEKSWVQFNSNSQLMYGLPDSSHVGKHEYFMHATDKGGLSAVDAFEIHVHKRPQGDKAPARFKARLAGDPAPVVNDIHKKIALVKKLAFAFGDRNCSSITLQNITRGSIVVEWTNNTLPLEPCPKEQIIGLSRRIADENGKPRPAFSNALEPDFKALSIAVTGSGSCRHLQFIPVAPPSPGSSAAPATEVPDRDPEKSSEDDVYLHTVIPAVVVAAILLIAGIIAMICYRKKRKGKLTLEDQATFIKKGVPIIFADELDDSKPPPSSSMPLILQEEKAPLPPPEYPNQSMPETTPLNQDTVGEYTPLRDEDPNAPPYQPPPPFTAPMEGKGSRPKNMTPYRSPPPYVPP
Assay: western blot of laminin bound to cells

Sequences of proteins named here, by UniProt entry; tags and fusion partners are left off. A change or cut given only in a name is not applied to a line headed by its entry.
UniProt P19137: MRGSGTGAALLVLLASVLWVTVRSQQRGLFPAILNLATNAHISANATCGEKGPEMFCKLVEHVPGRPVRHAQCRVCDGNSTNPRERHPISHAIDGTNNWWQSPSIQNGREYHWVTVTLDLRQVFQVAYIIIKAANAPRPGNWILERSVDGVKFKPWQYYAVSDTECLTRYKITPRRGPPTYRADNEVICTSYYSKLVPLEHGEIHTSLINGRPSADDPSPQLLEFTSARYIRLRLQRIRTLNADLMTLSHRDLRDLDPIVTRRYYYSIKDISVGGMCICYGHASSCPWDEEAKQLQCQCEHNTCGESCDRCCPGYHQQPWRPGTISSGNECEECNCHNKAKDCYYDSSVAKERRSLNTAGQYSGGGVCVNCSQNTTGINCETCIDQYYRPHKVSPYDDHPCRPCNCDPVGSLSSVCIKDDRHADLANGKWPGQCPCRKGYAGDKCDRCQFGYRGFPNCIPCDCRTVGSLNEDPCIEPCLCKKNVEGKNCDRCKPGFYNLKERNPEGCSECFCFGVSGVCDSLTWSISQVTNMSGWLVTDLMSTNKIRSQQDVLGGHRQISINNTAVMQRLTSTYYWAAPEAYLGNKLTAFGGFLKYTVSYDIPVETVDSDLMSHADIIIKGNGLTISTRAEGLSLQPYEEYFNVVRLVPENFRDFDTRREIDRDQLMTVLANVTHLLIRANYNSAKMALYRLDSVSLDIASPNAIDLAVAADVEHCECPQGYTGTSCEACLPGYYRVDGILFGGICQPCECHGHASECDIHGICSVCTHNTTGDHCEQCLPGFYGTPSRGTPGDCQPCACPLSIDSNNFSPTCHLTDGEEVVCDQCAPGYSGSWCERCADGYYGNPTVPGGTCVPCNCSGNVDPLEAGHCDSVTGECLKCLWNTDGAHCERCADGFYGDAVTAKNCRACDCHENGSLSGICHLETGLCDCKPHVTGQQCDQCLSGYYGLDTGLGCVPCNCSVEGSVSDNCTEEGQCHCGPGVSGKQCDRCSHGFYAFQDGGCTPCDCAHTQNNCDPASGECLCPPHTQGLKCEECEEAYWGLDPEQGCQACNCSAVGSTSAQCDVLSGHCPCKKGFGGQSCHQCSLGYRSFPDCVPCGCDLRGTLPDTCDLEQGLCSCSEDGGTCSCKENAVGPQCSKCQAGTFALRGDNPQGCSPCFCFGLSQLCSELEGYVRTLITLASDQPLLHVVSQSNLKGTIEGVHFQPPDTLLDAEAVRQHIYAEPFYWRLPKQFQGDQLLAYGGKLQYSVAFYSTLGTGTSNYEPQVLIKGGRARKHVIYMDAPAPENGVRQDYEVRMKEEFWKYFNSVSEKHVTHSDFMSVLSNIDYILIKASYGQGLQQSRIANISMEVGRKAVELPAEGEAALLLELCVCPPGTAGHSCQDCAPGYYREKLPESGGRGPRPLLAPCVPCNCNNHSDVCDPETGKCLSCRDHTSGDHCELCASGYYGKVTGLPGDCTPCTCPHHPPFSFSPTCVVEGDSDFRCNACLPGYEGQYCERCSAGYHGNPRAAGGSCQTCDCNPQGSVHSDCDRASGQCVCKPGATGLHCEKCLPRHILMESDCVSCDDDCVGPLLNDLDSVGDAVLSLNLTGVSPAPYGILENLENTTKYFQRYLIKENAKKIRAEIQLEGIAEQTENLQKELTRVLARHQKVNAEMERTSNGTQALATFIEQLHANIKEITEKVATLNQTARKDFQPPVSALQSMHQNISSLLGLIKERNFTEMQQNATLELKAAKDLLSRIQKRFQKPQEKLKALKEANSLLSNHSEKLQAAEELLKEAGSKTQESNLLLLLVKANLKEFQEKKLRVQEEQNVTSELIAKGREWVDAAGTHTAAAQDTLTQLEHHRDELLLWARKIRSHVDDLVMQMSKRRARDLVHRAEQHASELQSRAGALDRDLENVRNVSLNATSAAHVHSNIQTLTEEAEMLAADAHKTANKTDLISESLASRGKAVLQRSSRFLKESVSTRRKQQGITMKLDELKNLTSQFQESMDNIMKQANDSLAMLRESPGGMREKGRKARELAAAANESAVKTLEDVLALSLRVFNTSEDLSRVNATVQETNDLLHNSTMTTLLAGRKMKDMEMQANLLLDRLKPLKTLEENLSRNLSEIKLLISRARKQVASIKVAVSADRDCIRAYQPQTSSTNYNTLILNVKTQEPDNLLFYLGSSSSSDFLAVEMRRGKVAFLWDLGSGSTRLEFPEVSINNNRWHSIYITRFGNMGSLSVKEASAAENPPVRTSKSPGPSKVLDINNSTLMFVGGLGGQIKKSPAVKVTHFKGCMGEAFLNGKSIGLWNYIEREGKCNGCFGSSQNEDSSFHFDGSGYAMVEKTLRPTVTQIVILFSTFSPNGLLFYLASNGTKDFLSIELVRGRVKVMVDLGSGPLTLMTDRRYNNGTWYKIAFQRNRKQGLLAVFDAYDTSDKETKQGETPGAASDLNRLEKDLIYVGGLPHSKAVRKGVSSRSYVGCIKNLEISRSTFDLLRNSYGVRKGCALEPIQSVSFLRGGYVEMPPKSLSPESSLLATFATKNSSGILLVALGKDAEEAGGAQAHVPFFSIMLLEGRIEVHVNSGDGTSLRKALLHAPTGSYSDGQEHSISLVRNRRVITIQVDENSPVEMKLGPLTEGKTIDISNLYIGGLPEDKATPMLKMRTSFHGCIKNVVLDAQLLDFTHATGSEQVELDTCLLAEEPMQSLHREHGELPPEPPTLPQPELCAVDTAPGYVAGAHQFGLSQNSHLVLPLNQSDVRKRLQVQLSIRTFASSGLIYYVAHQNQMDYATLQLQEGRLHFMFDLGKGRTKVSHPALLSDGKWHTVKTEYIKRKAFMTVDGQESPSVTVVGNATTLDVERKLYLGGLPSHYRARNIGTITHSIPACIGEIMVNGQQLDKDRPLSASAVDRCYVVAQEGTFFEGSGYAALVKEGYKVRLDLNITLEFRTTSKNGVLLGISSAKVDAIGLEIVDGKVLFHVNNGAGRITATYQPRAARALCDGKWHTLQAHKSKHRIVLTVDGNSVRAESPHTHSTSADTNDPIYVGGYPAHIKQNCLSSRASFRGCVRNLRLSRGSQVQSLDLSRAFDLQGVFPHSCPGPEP

binding: binds
Substance: laminin-111 (from UniProt P19137 25-3083; P02469 22-1786; P02468 34-1607) (complex)

Source: doi:10.1101/531053
